Experimental data from ChEMBL document CHEMBL4513143, “CO-ADD screening of University of Natural Resources and Life (Austria) compounds”.
Some of the results follow. Potency and affinity values are given separately.

Each molecule was assayed on Pseudomonas aeruginosa. Settings: Concentration 32 ug.mL-1; ASSAY_TEST Inhibition of Bacterial Growth; detection method Absorption (OD600); MEDIA CAMHB; plate type 384well; NBS; CORNING #3640; time 18 hr.

Row | SMILES | Inhibition
1 | CCN(CC)CC.C[C@@H](CC1O[C@H]([C@@H](O)CO)[C@@H](O)[C@H](O)[C@@H]1O)OP(=O)(O)OC[C@H]1O[C@@H](n2cnc3c(N)ncnc32)[C@H](O)[C@@H]1O (stereo not given in full) | 6.57%
2 | CCN(CC)CC.O=P(O)(O)OC1C[C@@H](O)[C@H](O)[C@@H]([C@H](O)CO)O1 (stereo not given in full) | -10.41%
3 | OC[C@@H](O)[C@H]1OC(O)C[C@@H](O)[C@@H]1O (stereo not given in full) | -15.39%
4 | N.O=C(O)C1(O)C[C@@H](O)[C@H](O)[C@@H]([C@@H](O)CO)O1 (stereo not given in full) | -0.96%
5 | CC(=O)CC1O[C@H]([C@@H](O)CO)[C@@H](O)[C@H](O)[C@@H]1O (stereo not given in full) | -9.26%
6 | CCN(CC)CC.C[C@H](CC1O[C@H]([C@@H](O)CO)[C@@H](O)[C@H](O)[C@@H]1O)OP(=O)(O)O (stereo not given in full) | 3.72%
7 | CCN(CC)CC.C[C@H](CC1O[C@H]([C@@H](O)CO)[C@@H](O)[C@H](O)[C@@H]1O)OP(=O)(O)OC[C@H]1O[C@@H](n2cnc3c(N)ncnc32)[C@H](O)[C@@H]1O (stereo not given in full) | 9.79%
8 | CCN(CC)CC.C[C@@H](CC1O[C@H]([C@@H](O)CO)[C@@H](O)[C@H](O)[C@@H]1O)OP(=O)(O)O (stereo not given in full) | -4.62%
9 | CCN(CC)CC.C[C@H](CC1O[C@H]([C@H](O)CO)[C@@H](O)[C@H](O)[C@@H]1O)OP(=O)(O)OC[C@H]1O[C@@H](n2cnc3c(N)ncnc32)[C@H](O)[C@@H]1O (stereo not given in full) | 8.73%
10 | CCN(CC)CC.C[C@@H](CC1O[C@H]([C@H](O)CO)[C@@H](O)[C@H](O)[C@@H]1O)OP(=O)(O)OC[C@H]1O[C@@H](n2cnc3c(N)ncnc32)[C@H](O)[C@@H]1O (stereo not given in full) | -17.68%
